Experimental data: patent US20210380678A1
No constants are given. Whether binding was seen depends on the method and setting. Some entries that bind do so weakly or less than the wild type. For some assays here: Tags and fused reporters may be left off the sequences shown.

Chains of the proteins cited; added tags and fusions are not shown. Lines headed by an entry give the natural chain unless they say otherwise; changes in a name come on top.
UniProt Q9ULT6: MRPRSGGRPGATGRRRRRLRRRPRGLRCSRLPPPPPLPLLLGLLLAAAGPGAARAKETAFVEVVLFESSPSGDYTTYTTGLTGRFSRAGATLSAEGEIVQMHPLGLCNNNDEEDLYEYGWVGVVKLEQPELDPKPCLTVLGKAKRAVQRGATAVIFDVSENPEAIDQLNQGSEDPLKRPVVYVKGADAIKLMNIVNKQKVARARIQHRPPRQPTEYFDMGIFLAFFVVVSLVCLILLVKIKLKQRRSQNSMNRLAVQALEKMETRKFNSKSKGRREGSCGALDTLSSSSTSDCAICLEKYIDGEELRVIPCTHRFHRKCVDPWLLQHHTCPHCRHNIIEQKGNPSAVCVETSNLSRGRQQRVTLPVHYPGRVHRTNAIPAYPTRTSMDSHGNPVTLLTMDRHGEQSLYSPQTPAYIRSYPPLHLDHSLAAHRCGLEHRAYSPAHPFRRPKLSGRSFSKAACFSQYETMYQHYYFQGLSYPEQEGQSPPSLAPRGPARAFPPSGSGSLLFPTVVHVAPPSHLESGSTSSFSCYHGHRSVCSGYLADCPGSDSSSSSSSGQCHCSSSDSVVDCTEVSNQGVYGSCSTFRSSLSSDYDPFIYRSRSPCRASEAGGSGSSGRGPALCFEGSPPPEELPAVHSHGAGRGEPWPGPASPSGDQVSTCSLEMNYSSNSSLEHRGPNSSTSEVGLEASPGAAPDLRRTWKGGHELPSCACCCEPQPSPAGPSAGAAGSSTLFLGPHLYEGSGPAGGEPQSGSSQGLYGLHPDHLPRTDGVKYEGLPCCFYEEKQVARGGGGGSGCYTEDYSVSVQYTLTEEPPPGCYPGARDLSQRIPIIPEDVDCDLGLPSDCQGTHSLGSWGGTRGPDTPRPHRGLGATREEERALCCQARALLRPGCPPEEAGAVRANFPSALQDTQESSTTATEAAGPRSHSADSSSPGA

T1: Fc portion of human IgG1-fused LGR5-ECD (R&D systems) (human) (UniProt O75473)
T1 sequence (looked up): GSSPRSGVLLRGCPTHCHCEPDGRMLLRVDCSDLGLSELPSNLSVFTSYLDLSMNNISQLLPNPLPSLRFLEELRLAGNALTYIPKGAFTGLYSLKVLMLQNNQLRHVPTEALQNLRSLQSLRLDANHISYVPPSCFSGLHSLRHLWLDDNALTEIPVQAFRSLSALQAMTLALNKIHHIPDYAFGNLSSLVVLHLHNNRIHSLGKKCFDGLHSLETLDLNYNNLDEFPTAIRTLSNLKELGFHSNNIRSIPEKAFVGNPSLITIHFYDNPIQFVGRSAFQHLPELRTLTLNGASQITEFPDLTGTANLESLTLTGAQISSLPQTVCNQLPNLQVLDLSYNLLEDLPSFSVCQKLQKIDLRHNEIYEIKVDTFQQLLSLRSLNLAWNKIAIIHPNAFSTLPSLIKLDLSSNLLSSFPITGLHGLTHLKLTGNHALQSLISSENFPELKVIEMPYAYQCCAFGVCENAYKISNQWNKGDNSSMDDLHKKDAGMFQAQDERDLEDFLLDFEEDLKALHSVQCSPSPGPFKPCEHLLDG


Tests used:
[1] = target: human ZNRF3 extracellular domain (hZNRF3 ECD) (human) (UniProt Q9ULT6); assay: ELISA (binding specificity)
[2] = target: T1, Fc portion of human IgG1-fused LGR5-ECD (R&D systems) (human); assay: BLI (Octet), LGR5-ECD-Fc on AHC sensor

| binding [1] | binding [2] | Binder |
| --- | --- | --- |
| binds | – | 028S-A09 (antibody, V domains shown) VH: QVQLVQSGAEVKKPGASVKVSCKASGYRFTSYYLHWVRQAPGQGLEWMGWMNPKSGGTNYAQKFQGRVTMTRDTSTSTVYMELSSLRSEDTAVYYCARGGRSYGYWYFDLWGRGTLVTVSS VL: EIVMTQSPATLSVSPGERATLSCRASQSVDSSYLAWYQQKPGQAPRLLIYAASARAAGIPARFSGSGSGTEFTLTISSLQSEDFAVYYCQQYYRSPPTFGQGTRLEIK |
| – | binds | αGFP-RSPO2-WT (anti-GFP, RSPO2 wild type) (protein) QVQLVESGGGLVQPGGSLRLSCAASGFTFSRYGMHWVRQAPGKGLEWVSGISSIGSNTYYADSVKGRFTISRDNSKNTLYLQMNSLRAEDTAVYYCARWYKTYIDVWGQGTLVTVSSGGGGSGGGGSGGGGSDIELTQPPSVSVAPGQTARISCSGDNLGKKYVYWYQQKPGQAPVLVIYGDDERPSGIPERFSGSNSGNTATLTISGTQAEDEADYYCASYDSSHILIVFGGGTKLTVLGSGGSNPICKGCLSCSKDNGCSRCQQKLFFFLRREGMRQYGECLHSCPSGYYGHRAPDMNRCARCRIENCDSCFSKDFCTKCKVGFYLHRGRCFDECPDGFAPLEETMECVEGGDYKDDDDKGSHHHHHHHH |
